Test results: paper PMC12609774
No constants are given. Whether binding was seen depends on the method and setting. Binding seen in cells or lysates may run through a third protein.

Protein sequences, listed by entry. Tags and fused reporters are not part of them.
UniProt O00327: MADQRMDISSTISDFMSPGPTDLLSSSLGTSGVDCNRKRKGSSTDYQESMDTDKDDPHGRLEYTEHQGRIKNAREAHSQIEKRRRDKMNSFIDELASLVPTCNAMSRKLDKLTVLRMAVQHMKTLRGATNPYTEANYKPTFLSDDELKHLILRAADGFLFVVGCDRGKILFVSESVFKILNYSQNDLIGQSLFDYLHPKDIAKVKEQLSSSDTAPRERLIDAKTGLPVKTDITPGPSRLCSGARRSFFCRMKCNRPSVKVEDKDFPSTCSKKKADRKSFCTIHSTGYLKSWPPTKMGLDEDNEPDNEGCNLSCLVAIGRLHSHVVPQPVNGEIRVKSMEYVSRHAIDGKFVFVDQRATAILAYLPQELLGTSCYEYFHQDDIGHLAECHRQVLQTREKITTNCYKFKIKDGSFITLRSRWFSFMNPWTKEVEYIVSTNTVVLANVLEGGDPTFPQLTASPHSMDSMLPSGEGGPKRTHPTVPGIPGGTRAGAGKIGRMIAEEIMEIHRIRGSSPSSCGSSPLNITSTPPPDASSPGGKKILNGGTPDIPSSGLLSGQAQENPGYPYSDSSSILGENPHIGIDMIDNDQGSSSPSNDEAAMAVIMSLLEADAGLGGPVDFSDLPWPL

Biological target: brain and muscle ARNT-Like 1 (BMAL1) (human (endogenous in MCF7)) (UniProt O00327)
Assay: co-IP; MCF7 cell lysate (buffer with protease and phosphatase inhibitors); anti-BMAL1 antibody or IgG control with Protein A/G PLUS agarose beads, overnight; Western blot of the immunoprecipitates

binding: no binding
B1: Aldehyde dehydrogenase 3A1 (ALDH3A1) (enzyme, UniProt P30838 1-453)
chain: MSKISEAVKRARAAFSSGRTRPLQFRIQQLEALQRLIQEQEQELVGALAADLHKNEWNAYYEEVVYVLEEIEYMIQKLPEWAADEPVEKTPQTQQDELYIHSEPLGVVLVIGTWNYPFNLTIQPMVGAIAAGNSVVLKPSELSENMASLLATIIPQYLDKDLYPVINGGVPETTELLKERFDHILYTGSTGVGKIIMTAAAKHLTPVTLELGGKSPCYVDKNCDLDVACRRIAWGKFMNSGQTCVAPDYILCDPSIQNQIVEKLKKSLKEFYGEDAKKSRDYGRIISARHFQRVMGLIEGQKVAYGGTGDAATRYIAPTILTDVDPQSPVMQEEIFGPVLPIVCVRSLEEAIQFINQREKPLALYMFSSNDKVIKKMIAETSSGGVAANDVIVHITLHSLPFGGVGNSGMGSYHGKKSFETFSHRRSCLVRPLMNDEGLKVRYPPSPAKMTQH
